Results are given in words; binding and its absence hold for the method and conditions named. A result given as binding can be weak or reduced; the word gives no strength. Sequences can lack the tags named with a protein. Each block holds one molecule with its values, some of them ahead of it.
Tests used:
Assay in all cases: two-hybrid
[1] = target: T1, Schizosaccharomyces pombe Vps25 (Schizosaccharomyces pombe) (UniProt O74967)
T1 sequence: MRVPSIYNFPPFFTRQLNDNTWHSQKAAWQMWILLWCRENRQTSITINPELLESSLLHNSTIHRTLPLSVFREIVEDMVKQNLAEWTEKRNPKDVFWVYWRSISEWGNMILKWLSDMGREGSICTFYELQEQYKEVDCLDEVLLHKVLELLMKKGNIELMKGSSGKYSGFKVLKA

[2] = target: Schizosaccharomyces pombe Vps22 (Schizosaccharomyces pombe)
[3] = target: Schizosaccharomyces pombe Vps32 (Schizosaccharomyces pombe)

binding [1]: binds
Molecule: Schizosaccharomyces pombe Vps22

binding [2]: binds
binding [3]: binds
B1: Schizosaccharomyces pombe Vps20 (protein, UniProt O94318 1-226)
chain: MGVNSSKINDKDRSILSIKEQRDKLLRYSKRLEKIEQLEIDIARKCLRDSDKRGALRALKAKKLYSGLITQTYGQLGNIEQLLSTIEFTLIQKDVMFGLQEGTNLIRQLQADMPLERVGRICNDRDEAMSYVDEVNDMLQGRMSRDQEDEIQEELDSLIREQEDEKVKDLEKPGFTPSTGVDVLPSVPLKNAIPSLDESFPKAASVSNTSSAVVIDEELRKDPVLG
